Values of other authors, collected in patent publication US20110104186A1, “Small molecule immunopotentiators and assays for their detection” (priority 2004, published 2011).
At least one structure is not confirmed: it was looked up by name or label, or the drawing left a doubt.

System: TNF-α production
Conditions: at 300 μM; cited from earlier work

C=CCn1c(=O)n([C@@H]2O[C@H](CO)[C@@H](O)[C@H]2O)c2nc(N)[nH]c(=O)c21 [Loxoribine, 7-Allyl-8-Oxoguanosine]
production of TNF-α: causes useful production of TNF-α
